Screening data, single-dose tests

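Whole-parasite assay of Trypanosoma brucei over 72 hours; the read-out is not stated. Tested at 30 µM. Direction is inferred from retests: higher values go with stronger inhibition. Values scatter widely below zero; nearly all retest evidence comes from the higher of the two concentrations used. About 64,000 compounds were tested under these conditions; 1.5% (about 940) showed 50% or more at least once.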

Each number is a percent effect as filed. How 0% and 100% were set is not recorded. Most values in the screen are low, and negative values occur. This is an unselected part of the compounds tested.

Cc1nc(CC2CCCN(Cc3nc4ccccc4c(=O)[nH]3)C2)no1 (centres undefined) gave -31.09%.
CCC(NC(=O)NCc1cccc(N(C)C)n1)c1cccs1 (centres undefined) gave -28.11%.
Cc1nc(C#N)c(N2CCC(c3nc(-c4ccc(F)cc4)no3)CC2)o1 gave -15.03%.
CSCCC(Nc1nc(C)cc(C)n1)C(=O)NC1CC1 (centres undefined) gave 4.254%.
CC(=O)Nc1c(C)noc1/C=C\c1ccc(S(=O)(=O)NC2CC2)cc1 gave -2.674%.
CCc1cccc2c(CC(=O)N(C)CCN(C)C)c(C)[nH]c12.O=C(O)CC(O)(CC(=O)O)C(=O)O gave -18.69%.
Cc1cc(NC(=O)NCCc2ccc(S(N)(=O)=O)cc2)n(C)n1 gave -16.56%.
CC(C)c1n[nH]c(C2CN(Cc3nnc(C4CC4)n3C)CCO2)n1 (centres undefined) gave 3.985%.
Cc1nsc(NCc2ccc(S(=O)(=O)N(C)C(C)C)cc2)n1 gave -0.9991%.
COC(=O)N1CC(C)=C(C)CN1C(=O)Nc1ccc(Cl)cc1 gave 45.02%.
CS(=O)(=O)N1CCC2(CC1)CC(CC(=O)NCC1CC1)c1ccccc12 (centres undefined) gave 10.15%.
O=C(c1ccc(S(=O)(=O)NCCc2ccncc2)cc1)N1CCCC1 gave -12.71%.
Cc1ccc2ncccc2c1CN1CC[C@H](N(C)C)[C@H](CCC(=O)O)C1 gave -9.582%.
CC(C)c1nn2c(-c3cnn(C)c3)nnc2s1 gave -4.309%.
c1cc(-c2cscn2)cc(N2CCC(NCCc3cccs3)CC2)c1 gave 64.97%.
CCC(NC(=O)NCc1cccc(N(C)C)n1)c1nccs1 (centres undefined) gave -2.494%.
COc1ccc(-c2n[nH]cc2CNC2CCN(C3CC3)CC2)cc1.Cl gave -30.71%.
CC(=O)N(C)c1nc(CN2CCN(c3nccs3)CC2)cs1 gave -70.11%.
COCc1nc(CNC2CCSCC2)no1 gave 37.36%.
CC(C)NC(=O)N1CCN(CCn2cccn2)c2ncccc2C1.O=C(O)C(F)(F)F gave -82.31%.
CC(=O)N1CCCN(C(=O)NCc2ccc(Cl)s2)CC1 gave -18.13%.
CCc1cc(N2CCC(NC3CCOCC3)CC2)nc(N(C)C)n1 gave -1.839%.
Cl.Nc1ncnc2nc(C3CCCCN3)ccc12 (centres undefined) gave 5.297%.
COc1cc(-c2nc(CN(CCO)CCO)c(C)o2)ccc1F gave -54.59%.
Cc1cc(C(=O)N(C)S(=O)(=O)C(C)C)ccc1F gave 1.553%.
Cc1cc(=O)n2c(n1)SCC2CC(=O)NCc1cc(-c2ccco2)on1 (centres undefined) gave -24.94%.
CC(=O)N1CCC(Cc2cnc(-c3c(C)nn(C)c3C)cn2)C1 (centres undefined) gave 14.95%.
O=C(O)C(F)(F)F.O=C(O)C(F)(F)F.O=C(O)C(F)(F)F.[H][C@@]12CN(Cc3cccnc3)CCO[C@]1([H])CN(Cc1ccc(OC)cc1)C2 gave -36.98%.
Cc1ccc(CN2CCCC3(CCN(S(C)(=O)=O)C3)C2)o1.O=C(O)C(F)(F)F (centres undefined) gave 16.24%.
CCc1nc(N)nc(N2CCCC3(CN(C)C(=O)O3)C2)c1C (centres undefined) gave -110.6%.
Nc1nc(N)c2c(n1)OC1(CCN(C(=O)CC3CCCCN3)CC1)C2 (centres undefined) gave 1.529%.
Cc1oc(C(=O)O)cc1S(=O)(=O)Nc1cccc(Cl)c1F gave -17.36%.
Cc1cc(C)nc(NCCC(=O)NCCn2ccc3ccccc32)n1 gave 4.863%.
Cn1cccc1C(=O)NCc1cn2c(n1)CN(S(=O)(=O)C1CC1)CC2 gave -26.17%.
Cc1nnc(CN(CCc2ccccc2)C2CCN(C)CC2)s1 gave -5.451%.
Cc1nc(CN2CCC3(CCN(c4cnn(C)c4)C3=O)C2)cs1.O=C(O)C(F)(F)F (centres undefined) gave -7.553%.
CN(C)c1ccccc1C(=O)N1C[C@@H](CN2CCC(O)CC2)[C@@H](CO)C1 gave -17.79%.
O=C(Nc1nccs1)C1CCCN1Cc1ccccn1 (centres undefined) gave 98.2%.
CS(=O)(=O)N1Cc2nccn2CC(Cn2ncccc2=O)C1 (centres undefined) gave 29.38%.
CCc1nc(C)c(-c2nccn2CC2CC(=O)N(CC)C2)[nH]1 (centres undefined) gave -7.348%.
CN1C(=O)CC(c2cnn(C)c2)C12CCN(C(=O)c1cccn1C)CC2 (centres undefined) gave 17.86%.

The values are deposited in ChEMBL (CHEMBL3988442, “University of Dundee, Small-Polar-MMV Screening Library” (2021)).